US20260284208A1, “SYSTEM” (Oxford University Innovation Limited, priority 2023, published 2026)
This continues a long series; more values of the same kind are listed elsewhere.

Tested on: library of 8,380 IKZF3 degrons (ZF-eGFP/mCherry reporter) in Jurkat cells
Test: Pooled library screen (FACS, NGS, limma voom LogFC of positive vs negative read counts)
Format: cell-based, human
Method: A library of 8,380 IKZF3 degrons was cloned into pLVX-Sprout to create the eGFP/mCherry protein degradation reporter plasmid pool. A lentivirus pool was then generated using the Lenti-X lentiviral vector production method.
Jurkat cells were transduced at a multiplicity of infection of <0.3 with the lentivirus vector library in order to maximise the number of cells with a single integration. Transductions were carried out in 6 well TC-treated cell culture dishes (Falcon) with 3×10^6 cells per well. Cells were incubated for 2 days at 37° C. and 5% CO2 before the supernatant was removed and replaced with fresh media. 6 days post-transduction, mCherry+ cells were isolated via FACS using the FACS Aria Fusion (BD) in a buffer containing PBS (Gibco), 2 mM EDTA (Gibco), 25 mM HEPES (Sigma) and 1% BSA (Sigma). 8 days later, cells were treated with DMSO or a thalidomide analog for 18 hours at 37° C. and 5% CO2. mCherry+GFPlow and NOT(mCherry+GFPlow) cells were sorted by FACS using the FACS Aria Fusion (BD). DMSO treated cells were used to set the mCherry+GFPlow gate and dead cells were excluded from sorting by staining cells with 1 μg/mL DAPI (ThermoFisher). gDNA was isolated using the Maxwell RSC 48 (Promega). gDNA from cells that were unsorted and untreated were also isolated to determine the library representation on the day of compound treatment. Throughout the screen >600× coverage of the library was maintained. 3 biological replicates were carried out with a new transduction taking place each time.
A two-step PCR was used where the first PCR (PCR1) amplified the integrated degron sequence from gDNA and the second PCR (PCR2) added Illumina adaptors and barcodes to permit multiplexing. See Supp F for PCR1 and PCR2 primers. Q5 Hot Start High-Fidelity 2× Master Mix (New England Biolabs) was used for both PCRs. Sufficient gDNA was amplified in PCR1 in order to maintain >600× coverage and amplicons were purified using solid phase reversible immobilization (SPRI) beads (Beckman Coulter). Purified PCR1 products were analysed on the Tapestation 4200 (Agilent) to confirm purity prior to proceeding to PCR2. Sufficient PCR1 product was amplified in PCR2 in order to maintain >600× coverage and amplicons were run on a 2% agarose TAE gel. Target bands were excised and purified using the NucleoSpin Gel and PCR Clean-up Kit (Machery Nagel). Amplicons were analysed on the Tapestation 4200 and quantified using Qubit dsDNA HS kit (ThermoFisher). PCR products were pooled and sequenced as paired-reads on the NovaSeq (Illumina) using a SP2 200 cycles kit (Illumina).
Count distributions, percentage of read mapping, library coverage and replicate correlation per sample were assessed for QC purposes.
To carry out the library screen, we used the same plasmid construct as in our earlier flow cytometry assays, but pooling all 8,380 mutants together into one Jurkat population, ensuring a copy number of one plasmid per cell (FIG. 4B). […] These GFP-negative cells were then separated from the remaining GFP-positive population using fluorescence activated cell sorting (FACS). These two populations were then sequenced and the relative abundance of every mutant in both populations compared to provide a log FC value for each mutant sequence. This value indicated how frequently a sequence is observed in the GFP-negative population relative to the GFP-positive population, and therefore how effective a degron it is for that particular IMID compound.

For `O=C1CCC(N2C(=O)c3ccc(N4CCOCC4)cc3C2=O)C(=O)N1` (stereo not shown) [B03], the B03_logFC (degron 4095 (SEQ ID NO 3504) 46F_47W_49D_50I_52G_53A_54S_55F_67L) was 3.692, the B03_logFC (degron 4120 (SEQ ID NO 3641) 46F_47W_49D_50V_52G_53A_54A_55F_67L) was 3.373 and the B03_logFC (degron 4121 (SEQ ID NO 3603) 46F_47W_49D_50V_52G_53A_54C_55F_67L) was 3.471. For the same compound, the B03_logFC (degron 4131 (SEQ ID NO 3460) 46F_47W_49D_50V_52G_53A_54N_55F_67L) was 3.89, the B03_logFC (degron 4133 (SEQ ID NO 3466) 46F_47W_49D_50V_52G_53A_54Q_55F_67L) was 3.851 and the B03_logFC (degron 4134 (SEQ ID NO 3545) 46F_47W_49D_50V_52G_53A_54R_55F_67L) was 3.597. It also gave a B03_logFC (degron 4135 (SEQ ID NO 3600) 46F_47W_49D_50V_52G_53A_54S_55F_67L) of 3.482, a B03_logFC (degron 4140 (SEQ ID NO 3470) 46F_47W_49E_50I_52G_53A_54A_55F_67L) of 3.831 and a B03_logFC (degron 4141 (SEQ ID NO 3477) 46F_47W_49E_50I_52G_53A_54C_55F_67L) of 3.795. The B03_logFC (degron 4146 (SEQ ID NO 3482) 46F_47W_49E_50I_52G_53A_54H_55F_67L) was 3.784, the B03_logFC (degron 4147 (SEQ ID NO 3561) 46F_47W_49E_50I_52G_53A_54I_55F_67L) was 3.548 and the B03_logFC (degron 4148 (SEQ ID NO 3487) 46F_47W_49E_50I_52G_53A_54K_55F_67L) was 3.754. For the same compound, the B03_logFC (degron 4150 (SEQ ID NO 3530) 46F_47W_49E_50I_52G_53A_54M_55F_67L) was 3.628, the B03_logFC (degron 4151 (SEQ ID NO 3483) 46F_47W_49E_50I_52G_53A_54N_55F_67L) was 3.782 and the B03_logFC (degron 4152 (SEQ ID NO 3629) 46F_47W_49E_50I_52G_53A_54P_55F_67L) was 3.417. It also gave a B03_logFC (degron 4153 (SEQ ID NO 3455) 46F_47W_49E_50I_52G_53A_54Q_55F_67L) of 3.93, a B03_logFC (degron 4154 (SEQ ID NO 3582) 46F_47W_49E_50I_52G_53A_54R_55F_67L) of 3.508 and a B03_logFC (degron 4155 (SEQ ID NO 3473) 46F_47W_49E_50I_52G_53A_54S_55F_67L) of 3.809. The B03_logFC (degron 4156 (SEQ ID NO 3491) 46F_47W_49E_50I_52G_53A_54T_55F_67L) was 3.731, the B03_logFC (degron 4157 (SEQ ID NO 3584) 46F_47W_49E_50I_52G_53A_54V_55F_67L) was 3.507 and the B03_logFC (degron 4180 (SEQ ID NO 3458) 46F_47W_49E_50V_52G_53A_54A_55F_67L) was 3.904. The B03_logFC (degron 4181 (SEQ ID NO 3484) 46F_47W_49E_50V_52G_53A_54C_55F_67L) was 3.768, the B03_logFC (degron 4186 (SEQ ID NO 3457) 46F_47W_49E_50V_52G_53A_54H_55F_67L) was 3.919 and the B03_logFC (degron 4188 (SEQ ID NO 3463) 46F_47W_49E_50V_52G_53A_54K_55F_67L) was 3.857. For the same compound, the B03_logFC (degron 4190 (SEQ ID NO 3608) 46F_47W_49E_50V_52G_53A_54M_55F_67L) was 3.458, the B03_logFC (degron 4191 (SEQ ID NO 3464) 46F_47W_49E_50V_52G_53A_54N_55F_67L) was 3.856 and the B03_logFC (degron 4193 (SEQ ID NO 3478) 46F_47W_49E_50V_52G_53A_54Q_55F_67L) was 3.793. It also gave a B03_logFC (degron 4194 (SEQ ID NO 3472) 46F_47W_49E_50V_52G_53A_54R_55F_67L) of 3.817, a B03_logFC (degron 4195 (SEQ ID NO 3564) 46F_47W_49E_50V_52G_53A_54S_55F_67L) of 3.545 and a B03_logFC (degron 4196 (SEQ ID NO 3488) 46F_47W_49E_50V_52G_53A_54T_55F_67L) of 3.753. For the same compound, the B03_logFC (degron 4197 (SEQ ID NO 3624) 46F_47W_49E_50V_52G_53A_54V_55F_67L) was 3.426, the B03_logFC (degron 4211 (SEQ ID NO 3533) 46F_47W_49N_50I_52G_53A_54N_55F_67L) was 3.619 and the B03_logFC (degron 4213 (SEQ ID NO 3546) 46F_47W_49N_50I_52G_53A_54Q_55F_67L) was 3.593. For the same compound, the B03_logFC (degron 4215 (SEQ ID NO 3565) 46F_47W_49N_50I_52G_53A_54S_55F_67L) was 3.543, the B03_logFC (degron 4251 (SEQ ID NO 3574) 46F_47W_49N_50V_52G_53A_54N_55F_67L) was 3.527 and the B03_logFC (degron 4266 (SEQ ID NO 3577) 46F_47W_49P_50I_52G_53A_54H_55F_67L) was 3.514. It also gave a B03_logFC (degron 4268 (SEQ ID NO 3621) 46F_47W_49P_50I_52G_53A_54K_55F_67L) of 3.431, a B03_logFC (degron 4271 (SEQ ID NO 3524) 46F_47W_49P_50I_52G_53A_54N_55F_67L) of 3.643 and a B03_logFC (degron 4273 (SEQ ID NO 3505) 46F_47W_49P_50I_52G_53A_54Q_55F_67L) of 3.689. The B03_logFC (degron 4274 (SEQ ID NO 3514) 46F_47W_49P_50I_52G_53A_54R_55F_67L) was 3.663, the B03_logFC (degron 4275 (SEQ ID NO 3526) 46F_47W_49P_50I_52G_53A_54S_55F_67L) was 3.637 and the B03_logFC (degron 4276 (SEQ ID NO 3552) 46F_47W_49P_50I_52G_53A_54T_55F_67L) was 3.566. For the same compound, the B03_logFC (degron 4293 (SEQ ID NO 3569) 46F_47W_49P_50Q_52G_53A_54Q_55F_67L) was 3.537.
